Results reported in the supplement of paper PMC8975748.
Structures can show the parent of a compound that is named as a salt. ± gives the standard deviation of the averaged measurements. The list shows a part of the results. Values are raw readings; no control value is given beside them.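 One yeast strain harboring four plasmids, each bearing a fluorescent protein plus an amino-acid or uracil synthesis gene, founds the community. Random loss of plasmids produces mixed prototroph and auxotroph subpopulations. Cells were fixed, then counted with automated confocal fluorescence imaging, with DMSO-treated wells as vehicle reference.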

tested on: Saccharomyces cerevisiae BY4741 SeMeCo community; test: imaged cell count per well (cells); higher = more cells; conditions: 10 µM; 24 h; SM minimal medium
Protocol: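 Same SeMeCo high-content imaging drug screen: Selleck FDA-approved drugs at 10 µM, 24 h in SM medium, 384-well plates, 3 replicates.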

SMILES	imaged cell count per well
Nc1ccc(/N=N/c2ccccc2)c(N)n1 [Phenazopyridine HCl]	23300 ± 3300
Nc1nc2c(ncn2COCCO)c(=O)[nH]1 [Aciclovir]	20900 ± 6500
C[C@]12CC[C@@H]3c4ccc(OS(=O)(=O)O)cc4CC[C@H]3[C@@H]1CCC2=O [Estropipate]	26300 ± 3500
CC[N+](C)(C)c1cccc(O)c1 [Edrophonium chloride]	24600 ± 1600
CCN(CC)C(=O)C1(c2ccccc2)CC1CN (centres undefined) [Milnacipran HCl]	24000 ± 8500
CCN(CC)C(=O)[C@@]1(c2ccccc2)C[C@H]1CN [Levomilnacipran Hydrochloride]	26400 ± 5800
O=C1NCC2(CCN(CCc3ccccc3)CC2)O1 [Fenspiride HCl]	16800 ± 7400
COCCCOc1ccnc(C[S+]([O-])c2nc3ccccc3[nH]2)c1C (centres undefined) [Rebeprazole sodium]	22300 ± 2000
CC1(C)S[C@@H]2[C@H](NC(=O)Cc3ccccc3)C(=O)N2[C@H]1C(=O)O.CCN(CC)CCOC(=O)c1ccc(N)cc1 [Penicillin G Procaine]	24400 ± 3400

Three compounds already listed, sorted by length of the SMILES, ascending:
SMILES	imaged cell count per well
Nc1ccc(/N=N/c2ccccc2)c(N)n1 [Phenazopyridine HCl]	23300 ± 3300
CCN(CC)C(=O)C1(c2ccccc2)CC1CN (centres undefined) [Milnacipran HCl]	24000 ± 8500
COCCCOc1ccnc(C[S+]([O-])c2nc3ccccc3[nH]2)c1C (centres undefined) [Rebeprazole sodium]	22300 ± 2000
